These are yes or no findings as the source states them, for the method shown. Binding seen in cells or lysates may run through a third protein.
Key:
[1] = biological target: GST-fusion protein containing the N-terminal region of Dsh (GST-DN) (Drosophila); test: GST pull-down from lysates, and re-binding of kinase eluted from Dsh immuno-complex; in vitro kinase assay
[2] = biological target: GST-fusion protein containing the C-terminal region of Dsh (Drosophila); test: as above

- binding [1]: no binding
- binding [2]: no binding
B1: Dishevelled Associated Kinase (DAK), endogenous kinase activity from Drosophila embryo and Clone-8 cell lysates (enzyme)
chain: MSTAMRTTLQSVPEALPADSVSNGTASNVAAPAAPVSSATNAVPPLAAVSSTTATYATNSISTSSHSVKDQQQQQQQQQHDSANANIVSLPPTTTPVANTNTMMPIVTSSNSATSNSTAATPTPASGAAATGGVGSVSQGPATVSASAANTNHSHQHSHQHHHHVANNMTTDGARLSSNNSAVVASSAINHHHHHTPGSGVAPTVNKNVLSTHSAHPSAIKQRTSSAKGSPNMQMRSSAPMRWRATEEHIGKYKLIKTIGKGNFAKVKLAKHLPTGKEVAIKIIDKTQLNPGSLQKLFREVRIMKMLDHPNIVKLFQVIETEKTLYLIMEYASGGEVFDYLVLHGRMKEKEARVKFRQIVSAVQYCHQKRIIHRDLKAENLLLDSELNIKIADFGFSNEFTPGSKLDTFCGSPPYAAPELFQGKKYDGPEVDVWSLGVILYTLVSGSLPFDGSTLRELRERVLRGKYRIPFYMSTDCENLLRKFLVLNPAKRASLETIMGDKWMNMGFEEDELKPYIEPKADLADPKRIEALVAMGYNRSEIEASLSQVRYDDVFATYLLLGRKSTDPESDGSRSGSSLSLRNISGNDAGANAGSASVQSPTHRGVHRSISASSTKPSRRASSGAETLRVGPTNAAATVAAATGAVGAVNPSNNYNAAGSAADRASVGSNFKRQNTIDSATIKENTARLAAQNQRPASATQKMLTTADTTLNSPAKPRTATKYDPTNGNRTVSGTSGIIPRRSTTLYEKTSSTEKTNVIPAETKMASAVKSSRHFPRNVPSRSTFHSGQTRARNNTALEYSGTSGASGDSSHPGRMSFFSKLSSRFSKRPNQ

Source: US20040005688A1
